The text below walks through data of paper PMC9858708, “Genetic and Molecular Interactions between H^ΔCT, a Novel Allele of the Notch Antagonist Hairless, and the Histone Chaperone Asf1 in Drosophila melanogaster” (Genes, 2023).

Results are given in words; binding and its absence hold for the method and conditions named. For some assays here: Where a sequence is shown, tags or fusion partners need not be part of it.

Test [1] has as its target T1, Asf1 (1–154) (D. melanogaster, UniProt Q9V464 1-154).
T1 construct: Anti-silencing factor 1 (Asf1), D. melanogaster, amino acids 1-154; modified pET-14p construct
T1 sequence (looked up): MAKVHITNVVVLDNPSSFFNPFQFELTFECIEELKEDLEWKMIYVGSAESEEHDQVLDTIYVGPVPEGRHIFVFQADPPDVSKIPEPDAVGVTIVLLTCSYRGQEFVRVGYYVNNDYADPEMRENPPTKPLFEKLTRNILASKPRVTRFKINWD
In words: condition: 100 μM Hairless in the syringe and 10 μM Asf1 in the cell (typical experiment); ITC; MicroCal VP-ITC, 25 °C, 20 mM HEPES pH 7.5, 150 mM NaCl; typically 100 μM Hairless in the syringe and 10 μM Asf1 in the cell; one-site binding model; both purified.

Test [2] addresses T2, Hairless, full-length, two-hybrid bait (pEG H) (Drosophila melanogaster) (UniProt Q02308).
T2 sequence: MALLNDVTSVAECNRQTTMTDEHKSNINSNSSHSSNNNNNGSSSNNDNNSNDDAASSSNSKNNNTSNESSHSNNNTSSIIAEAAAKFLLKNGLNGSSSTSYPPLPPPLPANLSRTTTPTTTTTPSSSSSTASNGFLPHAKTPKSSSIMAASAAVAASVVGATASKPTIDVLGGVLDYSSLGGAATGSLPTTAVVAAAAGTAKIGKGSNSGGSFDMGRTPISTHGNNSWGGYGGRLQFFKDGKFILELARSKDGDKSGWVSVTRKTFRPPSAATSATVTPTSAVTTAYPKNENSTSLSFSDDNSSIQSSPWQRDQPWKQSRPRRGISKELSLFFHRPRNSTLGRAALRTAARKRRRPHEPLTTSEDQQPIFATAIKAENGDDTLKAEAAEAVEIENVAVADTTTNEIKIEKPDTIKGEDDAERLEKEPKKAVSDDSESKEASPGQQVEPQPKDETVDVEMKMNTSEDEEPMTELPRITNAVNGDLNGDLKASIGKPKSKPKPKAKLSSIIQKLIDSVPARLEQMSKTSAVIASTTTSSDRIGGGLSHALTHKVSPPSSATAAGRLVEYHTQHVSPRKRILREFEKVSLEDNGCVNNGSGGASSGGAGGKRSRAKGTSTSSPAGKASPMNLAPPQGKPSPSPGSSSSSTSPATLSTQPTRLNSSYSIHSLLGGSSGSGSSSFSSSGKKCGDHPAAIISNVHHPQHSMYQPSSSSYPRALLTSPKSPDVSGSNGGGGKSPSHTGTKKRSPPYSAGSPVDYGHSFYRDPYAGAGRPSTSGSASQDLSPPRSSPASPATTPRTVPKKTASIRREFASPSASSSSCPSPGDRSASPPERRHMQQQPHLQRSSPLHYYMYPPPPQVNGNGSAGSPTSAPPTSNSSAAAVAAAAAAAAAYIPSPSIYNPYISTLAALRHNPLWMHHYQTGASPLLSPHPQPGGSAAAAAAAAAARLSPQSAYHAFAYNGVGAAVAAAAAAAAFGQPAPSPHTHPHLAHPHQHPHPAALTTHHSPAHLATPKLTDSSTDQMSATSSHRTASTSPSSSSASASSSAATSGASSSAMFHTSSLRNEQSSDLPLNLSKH
Kind of test: two-hybrid; H constructs as bait in pEG202, Asf1 or Su(H) as prey in pJG4-5; lacZ reporter from pSH18-34, blue coloration of yeast colonies; overnight incubation for Su(H)-H, 48 h for Asf1-H.

The target in test [3] is T3, NT^ΔCTmyc-MBP (Hairless 212-369 lacking codons 300-337) (Drosophila melanogaster) (UniProt Q02308).
T3 sequence: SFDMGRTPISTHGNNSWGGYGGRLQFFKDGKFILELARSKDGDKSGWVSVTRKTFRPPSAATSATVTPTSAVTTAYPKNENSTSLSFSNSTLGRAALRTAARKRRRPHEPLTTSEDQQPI
In words: co-IP; Myc-trap: purified Asf1-HA-MBP or Su(H)-GST mixed 1:1 with NTCTmyc-MBP peptides, about 10 min at 4 °C, 150 mM NaCl, 50 mM Tris pH7.5, 0.1% SDS; Myc-tagged H peptides trapped on anti-Myc nanobody magnetic beads 1 h at 4 °C; Western blot with anti-Myc, anti-HA, anti-GST; both purified. On the technique in general: In western blotting, separated proteins are transferred to a membrane and probed.

The target of test [4] is T4, Hairless 295–317-myc MBP (Drosophila melanogaster) (UniProt Q02308).
T4 sequence: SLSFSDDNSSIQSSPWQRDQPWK
Described as above.

B1: H (232–338) (domain or fragment, UniProt Q02308 232-338)
chain: GGRLQFFKDGKFILELARSKDGDKSGWVSVTRKTFRPPSAATSATVTPTSAVTTAYPKNENSTSLSFSDDNSSIQSSPWQRDQPWKQSRPRRGISKELSLFFHRPRN
For B1, in test [1], the binding result was “no binding”.

Regarding STLGRAALRTAARKRRRPHE (domain or fragment, UniProt Q02308 339-358) [H (339–358)], in test [1], the binding entry was “no binding”.

B2: Asf1, full-length, two-hybrid prey (pJG Asf1) (protein, UniProt Q9V464 1-218)
chain: MAKVHITNVVVLDNPSSFFNPFQFELTFECIEELKEDLEWKMIYVGSAESEEHDQVLDTIYVGPVPEGRHIFVFQADPPDVSKIPEPDAVGVTIVLLTCSYRGQEFVRVGYYVNNDYADPEMRENPPTKPLFEKLTRNILASKPRVTRFKINWDYGHINGNGNGVENGHQDEMATDGPSTSEAASAVIHPEDDNSLAMPMENGIKALNENSNSLAMEC
With B2, in test [2], the binding result was “no binding”.

B3: Asf1-HA-MBP (full-length Drosophila Asf1) (protein, UniProt Q9V464 1-218)
chain: MAKVHITNVVVLDNPSSFFNPFQFELTFECIEELKEDLEWKMIYVGSAESEEHDQVLDTIYVGPVPEGRHIFVFQADPPDVSKIPEPDAVGVTIVLLTCSYRGQEFVRVGYYVNNDYADPEMRENPPTKPLFEKLTRNILASKPRVTRFKINWDYGHINGNGNGVENGHQDEMATDGPSTSEAASAVIHPEDDNSLAMPMENGIKALNENSNSLAMEC
In the case of B3, the binding result in test [3] and in test [4] was “no binding” in each case.
